The record followed here is patent US20210104294A1.

The assay deals with HLA-C*07:02 (in vitro binding assay) (human). The experiment in a line: in vitro peptide-HLA binding assay.

These are yes or no findings as the source states them, for the method shown. Binding calls can cover weak binding; strength is not graded here.

On to NKGPSYGL [SEQ ID NO 173497], for which the binding result is listed as “binds”.

Regarding AKAPHYVL [SEQ ID NO 173496], the binding result was “binds”.
